PubChem BioAssay AID1224828 | NIAID | 2016
Shown is an unselected part of about 17,000 reagents. 762 of all reagents (4.5%) count as active. 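Active calls include both raised and lowered p65 entry, mostly lowered; wells with fewer than 50 cells lack a z-score.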 The raw values are shown without normalisation.

Aim: 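Find genes required for NF-kappaB p65 moving into the nucleus after LPS in mouse macrophages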 (primary screen)
Cell system: mouse RAW264.7 G9 macrophage reporter cells (GFP-p65, Tnf promoter-mCherry)
Reagents: siRNA pool against mouse genes, 100 nM
Time to read-out: 2 days siRNA transfection, then 40 min LPS before fixation
Conditions: LPS (Salmonella minnesota R595) at 10 ng/ml
Measurement: 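Microscopy ratio of nuclear to perinuclear-ring GFP-p65 signal, scaled to the plate median; gene score is the average of two replicate robust z-scores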
Scale: p65 translocation robust z-score: higher = more nuclear NF-kappaB p65 after LPS than the plate median; nuclear/cytoplasmic p65 ratio: higher = more nuclear NF-kappaB p65
Active means: 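Active if robust z is above 3.3 (negative regulators) or below -1.56, the Tlr4 control median (positive regulators); activity score 50 or more; control wells not called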
Calls: active = hit (p65 shift raised or lowered); inactive = no clear change

Hps4 (GeneID 192232) → p65 translocation robust z-score: -1.07; nuclear/cytoplasmic p65 ratio, rep 1: 1.42; nuclear/cytoplasmic p65 ratio, rep 2: 1.25; low cell count flag: enough cells to score; outcome: inactive
Pcdhb2 (GeneID 93873) → p65 translocation robust z-score: -0.09; nuclear/cytoplasmic p65 ratio, rep 1: 1.37; nuclear/cytoplasmic p65 ratio, rep 2: 1.46; low cell count flag: enough cells to score; outcome: inactive
Hjurp (GeneID 381280) → p65 translocation robust z-score: -0.61; nuclear/cytoplasmic p65 ratio, rep 1: 1.49; nuclear/cytoplasmic p65 ratio, rep 2: 1.55; low cell count flag: enough cells to score; outcome: inactive
Map3k8 (GeneID 26410) → p65 translocation robust z-score: -0.5; nuclear/cytoplasmic p65 ratio, rep 1: 2.13; nuclear/cytoplasmic p65 ratio, rep 2: 1.31; low cell count flag: enough cells to score; outcome: inactive
Or4f54 (GeneID 258389) → p65 translocation robust z-score: -0.53; nuclear/cytoplasmic p65 ratio, rep 1: 1.61; nuclear/cytoplasmic p65 ratio, rep 2: 1.28; low cell count flag: enough cells to score; outcome: inactive
Senp6 (GeneID 215351) → p65 translocation robust z-score: 0.34; nuclear/cytoplasmic p65 ratio, rep 1: 1.32; nuclear/cytoplasmic p65 ratio, rep 2: 1.3; low cell count flag: enough cells to score; outcome: inactive
Aox3 (GeneID 71724) → nuclear/cytoplasmic p65 ratio, rep 1: 1.1; nuclear/cytoplasmic p65 ratio, rep 2: 1.4; low cell count flag: fewer than 50 cells per well; well left out of scoring; outcome: inactive
Scrg1 (GeneID 20284) → nuclear/cytoplasmic p65 ratio, rep 1: 1.27; nuclear/cytoplasmic p65 ratio, rep 2: 1.13; low cell count flag: fewer than 50 cells per well; well left out of scoring; outcome: inactive
Crat (GeneID 12908) → p65 translocation robust z-score: 0.82; nuclear/cytoplasmic p65 ratio, rep 1: 1.58; nuclear/cytoplasmic p65 ratio, rep 2: 1.46; low cell count flag: enough cells to score; outcome: inactive
Tnfsf18 (GeneID 240873) → p65 translocation robust z-score: -0.55; nuclear/cytoplasmic p65 ratio, rep 1: 1.48; nuclear/cytoplasmic p65 ratio, rep 2: 1.4; low cell count flag: enough cells to score; outcome: inactive

Next part; the last 3 above are carried over.
Scrg1 (GeneID 20284) → nuclear/cytoplasmic p65 ratio, rep 1: 1.27; nuclear/cytoplasmic p65 ratio, rep 2: 1.13; low cell count flag: fewer than 50 cells per well; well left out of scoring; outcome: inactive
Crat (GeneID 12908) → p65 translocation robust z-score: 0.82; nuclear/cytoplasmic p65 ratio, rep 1: 1.58; nuclear/cytoplasmic p65 ratio, rep 2: 1.46; low cell count flag: enough cells to score; outcome: inactive
Tnfsf18 (GeneID 240873) → p65 translocation robust z-score: -0.55; nuclear/cytoplasmic p65 ratio, rep 1: 1.48; nuclear/cytoplasmic p65 ratio, rep 2: 1.4; low cell count flag: enough cells to score; outcome: inactive
Kctd12b (GeneID 207474) → p65 translocation robust z-score: 1.48; nuclear/cytoplasmic p65 ratio, rep 1: 1.35; nuclear/cytoplasmic p65 ratio, rep 2: 1.63; low cell count flag: enough cells to score; outcome: inactive
C87436 (GeneID 232196) → p65 translocation robust z-score: 0.63; nuclear/cytoplasmic p65 ratio, rep 1: 1.67; nuclear/cytoplasmic p65 ratio, rep 2: 1.9; low cell count flag: enough cells to score; outcome: inactive
Gjb2 (GeneID 14619) → p65 translocation robust z-score: -0.84; nuclear/cytoplasmic p65 ratio, rep 1: 1.31; nuclear/cytoplasmic p65 ratio, rep 2: 1.28; low cell count flag: enough cells to score; outcome: inactive
Myo7b (GeneID 17922) → p65 translocation robust z-score: -0.85; nuclear/cytoplasmic p65 ratio, rep 1: 1.61; nuclear/cytoplasmic p65 ratio, rep 2: 1.5; low cell count flag: enough cells to score; outcome: inactive
Lama2 (GeneID 16773) → p65 translocation robust z-score: 1.07; nuclear/cytoplasmic p65 ratio, rep 1: 1.67; nuclear/cytoplasmic p65 ratio, rep 2: 1.47; low cell count flag: enough cells to score; outcome: inactive
Cyp2c23 (GeneID 226143) → p65 translocation robust z-score: -1.91; nuclear/cytoplasmic p65 ratio, rep 1: 1.23; nuclear/cytoplasmic p65 ratio, rep 2: 1.6; low cell count flag: enough cells to score; outcome: active
Sesn3 (GeneID 75747) → nuclear/cytoplasmic p65 ratio, rep 1: 1.29; nuclear/cytoplasmic p65 ratio, rep 2: 1.28; low cell count flag: fewer than 50 cells per well; well left out of scoring; outcome: inactive
Zfyve9 (GeneID 230597) → p65 translocation robust z-score: 1.19; nuclear/cytoplasmic p65 ratio, rep 1: 1.62; nuclear/cytoplasmic p65 ratio, rep 2: 1.52; low cell count flag: enough cells to score; outcome: inactive
Exoc3l (GeneID 277978) → p65 translocation robust z-score: 0.71; nuclear/cytoplasmic p65 ratio, rep 1: 1.74; nuclear/cytoplasmic p65 ratio, rep 2: 1.85; low cell count flag: enough cells to score; outcome: inactive
Rftn1 (GeneID 76438) → nuclear/cytoplasmic p65 ratio, rep 1: 1.34; nuclear/cytoplasmic p65 ratio, rep 2: 1.28; low cell count flag: fewer than 50 cells per well; well left out of scoring; outcome: inactive
Srpx2 (GeneID 68792) → p65 translocation robust z-score: 0.46; nuclear/cytoplasmic p65 ratio, rep 1: 1.56; nuclear/cytoplasmic p65 ratio, rep 2: 1.55; low cell count flag: enough cells to score; outcome: inactive
